Test results: patent US20220323548A1 (priority 2019, published 2022)
At least one compound was matched to its structure with a doubt left.

Protein sequences, listed by entry. Tags and fused reporters are not part of them. Residues count along the entry.
UniProt P43220, 24-463: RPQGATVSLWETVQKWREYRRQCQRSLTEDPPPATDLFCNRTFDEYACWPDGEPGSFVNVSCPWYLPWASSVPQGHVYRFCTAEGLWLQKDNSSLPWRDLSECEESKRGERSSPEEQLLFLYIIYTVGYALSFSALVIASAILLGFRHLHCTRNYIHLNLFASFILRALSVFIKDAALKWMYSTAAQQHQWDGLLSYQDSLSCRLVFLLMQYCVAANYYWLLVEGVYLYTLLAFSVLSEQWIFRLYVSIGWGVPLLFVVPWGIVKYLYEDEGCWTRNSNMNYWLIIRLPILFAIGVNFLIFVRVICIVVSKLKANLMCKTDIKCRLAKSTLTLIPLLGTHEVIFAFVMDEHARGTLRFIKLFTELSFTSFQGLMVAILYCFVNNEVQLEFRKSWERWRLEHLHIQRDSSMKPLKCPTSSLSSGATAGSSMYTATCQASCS

The molecules below were run against human GLP-1R (Homo sapiens, UniProt P43220) (assay: GLP-1 receptor luciferase reporter assay (part I, glycosylated analogs)). Conditions: CV-1 cells transfected with human GLP-1R and CRE, 6 hours treatment, Table 2.
Format: cell-based

SMILES | EC50 [nM]
CCCCCCCCCC(=O)NCCCC[C@H](NC(=O)[C@H](CO)NC(=O)[C@@H]1CCCN1C(=O)CNC(=O)CNC(=O)[C@H](CC(N)=O)NC(=O)[C@H](CCCCN)NC(=O)[C@H](CC(C)C)NC(=O)[C@H](Cc1c[nH]c2ccccc12)NC(=O)[C@H](CCC(=O)O)NC(=O)[C@@H](NC(=O)[C@H](Cc1ccccc1)NC(=O)[C@H](CC(C)C)NC(=O)[C@H](CCCNC(=N)N)NC(=O)[C@@H](NC(=O)[C@H](C)NC(=O)[C@H](CSCC(=O)N[C@@H]1O[C@H](CO)[C@@H](O[C@@H]2O[C@H](CO)[C@@H](O[C@@H]3O[C@H](CO[C@H]4O[C@H](CO)[C@@H](O)[C@H](O)[C@@H]4O[C@@H]4O[C@H](CO)[C@@H](O[C@@H]5O[C@H](CO[C@]6(C(=O)OCc7ccccc7)C[C@H](O)[C@@H](NC(C)=O)[C@H]([C@H](O)[C@H](O)CO)O6)[C@H](O)[C@H](O)[C@H]5O)[C@H](O)[C@H]4NC(C)=O)[C@@H](O)[C@H](O[C@H]4O[C@H](CO)[C@@H](O)[C@H](O)[C@@H]4O[C@@H]4O[C@H](CO)[C@@H](O[C@@H]5O[C@H](CO[C@]6(C(=O)OCc7ccccc7)C[C@H](O)[C@@H](NC(C)=O)[C@H]([C@H](O)[C@H](O)CO)O6)[C@H](O)[C@H](O)[C@H]5O)[C@H](O)[C@H]4NC(C)=O)[C@@H]3O)[C@H](O)[C@H]2NC(C)=O)[C@H](O)[C@H]1NC(C)=O)NC(=O)[C@H](CCC(=O)O)NC(=O)[C@H](CCC(=O)O)NC(=O)[C@H](CCSC)NC(=O)[C@H](CCC(N)=O)NC(=O)[C@H](CCCCN)NC(=O)[C@H](CO)NC(=O)[C@H](CC(C)C)NC(=O)[C@H](CC(=O)O)NC(=O)[C@H](CO)NC(=O)[C@@H](NC(=O)[C@H](Cc1ccccc1)NC(=O)[C@@H](NC(=O)CNC(=O)[C@H](CCC(=O)O)NC(=O)CNC(=O)[C@@H](N)Cc1c[nH]cn1)[C@@H](C)O)[C@@H](C)O)C(C)C)[C@@H](C)CC)C(=O)O [AGM-212(E17C-11 sugar)] | 18.4 ± 0.4
CCCCCCCCCC(=O)NCCCC[C@H](NC(=O)[C@H](CO)NC(=O)[C@@H]1CCCN1C(=O)CNC(=O)CNC(=O)[C@H](CSCC(=O)N[C@@H]1O[C@H](CO)[C@@H](O[C@@H]2O[C@H](CO)[C@@H](O[C@@H]3O[C@H](CO[C@H]4O[C@H](CO)[C@@H](O)[C@H](O)[C@@H]4O[C@@H]4O[C@H](CO)[C@@H](O[C@@H]5O[C@H](CO[C@]6(C(=O)OCc7ccccc7)C[C@H](O)[C@@H](NC(C)=O)[C@H]([C@H](O)[C@H](O)CO)O6)[C@H](O)[C@H](O)[C@H]5O)[C@H](O)[C@H]4NC(C)=O)[C@@H](O)[C@H](O[C@H]4O[C@H](CO)[C@@H](O)[C@H](O)[C@@H]4O[C@@H]4O[C@H](CO)[C@@H](O[C@@H]5O[C@H](CO[C@]6(C(=O)OCc7ccccc7)C[C@H](O)[C@@H](NC(C)=O)[C@H]([C@H](O)[C@H](O)CO)O6)[C@H](O)[C@H](O)[C@H]5O)[C@H](O)[C@H]4NC(C)=O)[C@@H]3O)[C@H](O)[C@H]2NC(C)=O)[C@H](O)[C@H]1NC(C)=O)NC(=O)[C@H](CCCCN)NC(=O)[C@H](CC(C)C)NC(=O)[C@H](Cc1c[nH]c2ccccc12)NC(=O)[C@H](CCC(=O)O)NC(=O)[C@@H](NC(=O)[C@H](Cc1ccccc1)NC(=O)[C@H](CC(C)C)NC(=O)[C@H](CCCNC(=N)N)NC(=O)[C@@H](NC(=O)[C@H](C)NC(=O)[C@H](CSCC(=O)N[C@@H]1O[C@H](CO)[C@@H](O[C@@H]2O[C@H](CO)[C@@H](O[C@@H]3O[C@H](CO[C@H]4O[C@H](CO)[C@@H](O)[C@H](O)[C@@H]4O[C@@H]4O[C@H](CO)[C@@H](O[C@@H]5O[C@H](CO[C@]6(C(=O)OCc7ccccc7)C[C@H](O)[C@@H](NC(C)=O)[C@H]([C@H](O)[C@H](O)CO)O6)[C@H](O)[C@H](O)[C@H]5O)[C@H](O)[C@H]4NC(C)=O)[C@@H](O)[C@H](O[C@H]4O[C@H](CO)[C@@H](O)[C@H](O)[C@@H]4O[C@@H]4O[C@H](CO)[C@@H](O[C@@H]5O[C@H](CO[C@]6(C(=O)OCc7ccccc7)C[C@H](O)[C@@H](NC(C)=O)[C@H]([C@H](O)[C@H](O)CO)O6)[C@H](O)[C@H](O)[C@H]5O)[C@H](O)[C@H]4NC(C)=O)[C@@H]3O)[C@H](O)[C@H]2NC(C)=O)[C@H](O)[C@H]1NC(C)=O)NC(=O)[C@H](CCC(=O)O)NC(=O)[C@H](CCC(=O)O)NC(=O)[C@H](CCSC)NC(=O)[C@H](CCC(N)=O)NC(=O)[C@H](CCCCN)NC(=O)[C@H](CO)NC(=O)[C@H](CC(C)C)NC(=O)[C@H](CC(=O)O)NC(=O)[C@H](CO)NC(=O)[C@@H](NC(=O)[C@H](Cc1ccccc1)NC(=O)[C@@H](NC(=O)CNC(=O)[C@H](CCC(=O)O)NC(=O)CNC(=O)[C@@H](N)Cc1c[nH]cn1)[C@@H](C)O)[C@@H](C)O)C(C)C)[C@@H](C)CC)C(=O)O [AGM-212(E17C-11 sugar & N28C-11 sugar)] | 40 ± 0.5
CCCCCCCCCC(=O)NCCCC[C@H](NC(=O)[C@H](CO)NC(=O)[C@@H]1CCCN1C(=O)CNC(=O)CNC(=O)[C@H](CC(N)=O)NC(=O)[C@H](CCCCN)NC(=O)[C@H](CC(C)C)NC(=O)[C@H](Cc1c[nH]c2ccccc12)NC(=O)[C@H](CSCC(=O)N[C@@H]1O[C@H](CO)[C@@H](O[C@@H]2O[C@H](CO)[C@@H](O[C@@H]3O[C@H](CO[C@H]4O[C@H](CO)[C@@H](O)[C@H](O)[C@@H]4O[C@@H]4O[C@H](CO)[C@@H](O[C@@H]5O[C@H](CO[C@]6(C(=O)OCc7ccccc7)C[C@H](O)[C@@H](NC(C)=O)[C@H]([C@H](O)[C@H](O)CO)O6)[C@H](O)[C@H](O)[C@H]5O)[C@H](O)[C@H]4NC(C)=O)[C@@H](O)[C@H](O[C@H]4O[C@H](CO)[C@@H](O)[C@H](O)[C@@H]4O[C@@H]4O[C@H](CO)[C@@H](O[C@@H]5O[C@H](CO[C@]6(C(=O)OCc7ccccc7)C[C@H](O)[C@@H](NC(C)=O)[C@H]([C@H](O)[C@H](O)CO)O6)[C@H](O)[C@H](O)[C@H]5O)[C@H](O)[C@H]4NC(C)=O)[C@@H]3O)[C@H](O)[C@H]2NC(C)=O)[C@H](O)[C@H]1NC(C)=O)NC(=O)[C@@H](NC(=O)[C@H](Cc1ccccc1)NC(=O)[C@H](CC(C)C)NC(=O)[C@H](CCCNC(=N)N)NC(=O)[C@@H](NC(=O)[C@H](C)NC(=O)[C@H](CSCC(=O)N[C@@H]1O[C@H](CO)[C@@H](O[C@@H]2O[C@H](CO)[C@@H](O[C@@H]3O[C@H](CO[C@H]4O[C@H](CO)[C@@H](O)[C@H](O)[C@@H]4O[C@@H]4O[C@H](CO)[C@@H](O[C@@H]5O[C@H](CO[C@]6(C(=O)OCc7ccccc7)C[C@H](O)[C@@H](NC(C)=O)[C@H]([C@H](O)[C@H](O)CO)O6)[C@H](O)[C@H](O)[C@H]5O)[C@H](O)[C@H]4NC(C)=O)[C@@H](O)[C@H](O[C@H]4O[C@H](CO)[C@@H](O)[C@H](O)[C@@H]4O[C@@H]4O[C@H](CO)[C@@H](O[C@@H]5O[C@H](CO[C@]6(C(=O)OCc7ccccc7)C[C@H](O)[C@@H](NC(C)=O)[C@H]([C@H](O)[C@H](O)CO)O6)[C@H](O)[C@H](O)[C@H]5O)[C@H](O)[C@H]4NC(C)=O)[C@@H]3O)[C@H](O)[C@H]2NC(C)=O)[C@H](O)[C@H]1NC(C)=O)NC(=O)[C@H](CCC(=O)O)NC(=O)[C@H](CCC(=O)O)NC(=O)[C@H](CCSC)NC(=O)[C@H](CCC(N)=O)NC(=O)[C@H](CCCCN)NC(=O)[C@H](CO)NC(=O)[C@H](CC(C)C)NC(=O)[C@H](CC(=O)O)NC(=O)[C@H](CO)NC(=O)[C@@H](NC(=O)[C@H](Cc1ccccc1)NC(=O)[C@@H](NC(=O)CNC(=O)[C@H](CCC(=O)O)NC(=O)CNC(=O)[C@@H](N)Cc1c[nH]cn1)[C@@H](C)O)[C@@H](C)O)C(C)C)[C@@H](C)CC)C(=O)O [AGM-212(E17C-11 sugar & E24C-11 sugar)] | 80 ± 0.4
